In patent publication US9364492B2, “Method for glycosylation of flavonoid compounds” (SUNTORY HOLDINGS LIMITED, priority 2007, dated 2016):

assay: Taste evaluation with a taste sensor (artificial lipid membrane electrode); details: 200 ppm in distilled water; compared with green tea extract (TVG-1), the unglycosylated product

Structure (SMILES)	astringent taste
O=C(O[C@@H]1Cc2c(O[C@H]3O[C@H](CO)[C@@H](O)[C@H](O)[C@H]3O)cc(O)cc2O[C@@H]1c1cc(O)c(O)c(O)c1)c1cc(O)c(O)c(O)c1 [5-O-α-D-glucopyranosyl-(−)-epigallocatechin-3-O-gallate]	significantly lower level of astringent taste
O=C(O[C@@H]1Cc2c(O[C@H]3O[C@H](CO)[C@@H](O[C@H]4O[C@H](CO)[C@@H](O)[C@H](O)[C@H]4O)[C@H](O)[C@H]3O)cc(O)cc2O[C@@H]1c1cc(O)c(O)c(O)c1)c1cc(O)c(O)c(O)c1 [5GG-1, 5-O-(4-O-α-D-glucopyranosyl-α-D-glucopyranosyl)-(−)-epigallocatechin-3-O-gallate]	significantly lower level of astringent taste
O=C(O[C@@H]1Cc2c(O)cc(O[C@H]3O[C@H](CO)[C@@H](O[C@H]4O[C@H](CO)[C@@H](O)[C@H](O)[C@H]4O)[C@H](O)[C@H]3O)cc2O[C@@H]1c1cc(O)c(O)c(O)c1)c1cc(O)c(O)c(O)c1 [7-O-(4-O-α-D-glucopyranosyl-α-D-glucopyranosyl)-(−)-epigallocatechin-3-O-gallate]	significantly lower level of astringent taste
O=C(O[C@@H]1Cc2c(O)cc(O[C@H]3O[C@H](CO)[C@@H](O)[C@H](O)[C@H]3O)cc2O[C@@H]1c1cc(O)c(O)c(O)c1)c1cc(O)c(O)c(O)c1 [7-O-α-D-glucopyranosyl-(−)-epigallocatechin-3-O-gallate]	significantly lower level of astringent taste

Some entries repeat one wording, which the source may state once for all of them.
